PMC4300400, “Comparative biochemical analysis of three members of the Schistosoma mansoni TAL family: Differences in ion and drug binding properties” (Biochimie, 2015)
These are yes or no findings as the source states them, for the method shown.

Sequences of proteins named here, by UniProt entry; tags and fusion partners are left off.
UniProt P51570: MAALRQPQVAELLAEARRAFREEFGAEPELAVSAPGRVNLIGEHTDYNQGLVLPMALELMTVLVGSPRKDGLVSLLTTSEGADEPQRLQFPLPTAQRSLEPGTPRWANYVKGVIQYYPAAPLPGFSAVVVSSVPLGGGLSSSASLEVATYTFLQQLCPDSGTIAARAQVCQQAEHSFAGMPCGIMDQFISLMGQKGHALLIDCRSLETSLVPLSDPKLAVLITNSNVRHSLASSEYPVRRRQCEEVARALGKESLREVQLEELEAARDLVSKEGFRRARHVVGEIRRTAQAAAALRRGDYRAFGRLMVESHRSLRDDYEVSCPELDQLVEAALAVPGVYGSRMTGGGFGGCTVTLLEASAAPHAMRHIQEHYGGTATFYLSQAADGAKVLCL

Target: recombinant human galactokinase (human) (UniProt P51570)
Assay: cross-linking; BS3 (50, 150, 500 μM) with 10-15 μM protein in buffer R (50 mM Hepes-OH pH 7.5, 150 mM NaCl, 10% v/v glycerol), 37 °C, 35 min; with 0.8 mM EGTA or 0.8 mM EGTA/1.6 mM calcium chloride; analysed by 15% SDS-PAGE; both purified

- binding: no binding (tested: 15 μM)
Substance: recombinant human galactokinase (from UniProt P51570 1-392) (enzyme)
